{"source": "patent US4658016", "about": "(dated 1987)", "data": [{"assay": "general procedure: solution-phase peptide synthesis; DCC/HOObt with N-ethylmorpholine; Z-Arg(Z2)-OTcp active ester with HOBt", "settings": "coupling step, acetate", "units": {"step yield": "%"}, "values": [{"substance": "Z--Arg(Z2)--Lys(Z)--D--Aad(OBzl)--Val--OBu^t", "step yield": 68.3}, {"substance": "Z--Arg(Z2)--Lys(Z)--D--Aad(OBzl)--Val--Trp cyclohexyl ester", "step yield": 83.3}, {"substance": "Z--Arg(Z2)--Lys(Z)--D--Aad(OBzl)--Val--Trp isobutylamide", "step yield": 85.6}, {"substance": "Z--Arg(Z2)--Lys(Z)--D--Aad(OBzl)--Val--Tyr--OBzl", "step yield": 88.4}, {"substance": "Z--Arg(Z2)--Lys(Z)--D--Aad(OBzl)Val--Trp--OBzl", "step yield": 84.2}, {"substance": "Z--Arg(Z2)--Lys(Z)--Glu(OBzl)--Val--OBu^t", "step yield": 91}, {"substance": "Z--Arg(Z2)--Lys(Z)--Glu(OBzl)--Val--Trp cyclohexyl ester", "step yield": 86}, {"substance": "Z--Arg(Z2)--Lys(Z)--Glu(OBzl)--Val--Trp--OBzl", "step yield": 81.3}]}, {"assay": "general procedure: solution-phase peptide synthesis; DCC/HOObt with N-ethylmorpholine; Z-Arg(Z2)-OTcp active ester with HOBt", "settings": "late stage modification step, acetate", "units": {"step yield": "%"}, "values": [{"substance": "Z--Arg(Z2)--Lys(Z)--D--Aad(OBzl)--Val--OH", "step yield": 74.3}, {"substance": "Z--Arg(Z2)--Lys(Z)--Glu(OBzl)--Val--OH", "step yield": 83.2}]}, {"assay": "general procedure: solution-phase peptide synthesis; DCC/HOObt with N-ethylmorpholine; Z-Arg(Z2)-OTcp active ester with HOBt", "settings": "late stage modification step, diacetate", "units": {"step yield": "%"}, "values": [{"substance": "Arg--Lys--Glu--Val--Trp cyclohexyl ester diacetate", "step yield": 44}, {"substance": "Arg--Lys--Glu--Val--Trp isobutylamide diacetate", "step yield": 46}]}]}
